Reference: PubChem BioAssay AID1487 (National Center for Advancing Translational Sciences (NCATS), 2009)
The other results are listed elsewhere or left out. These are further read-outs of the screen, such as a control signal, another cell line or another target. No call is given for them. Most of these compounds were active or inconclusive in the main read-out, so they are no random draw. Potencies come from curve fits of mixed quality, noted in brackets.

Assay: qHTS Assay for Modulators of Lamin A Splicing
Conditions: HeLa LMNA splicing GFP/RFP minigene ratio, 48 h
Procedure, shortened: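 S3 HeLa stable clones carrying a lamin A-EGFP splicing minigene plus DsRed2 were seeded at 600 cells/well in Opti-MEM with 2% FBS, pin-dosed and incubated 48 h at 37°C. Acumen cytometry (488 nm) gave the GFP/RFP total-intensity ratio.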

[1] = measured here: RFP viability control channel
[2] = measured here: GFP splicing reporter channel

Row | Compound | AC50 [1] | AC50 [2]
1 | COc1ccc(N=Cc2cc3c(cc2O)OC(N)=C(C#N)C3c2ccccc2)cc1 (configuration not stated) | 3.16 µM [falling, single point] | 
2 | NC(=O)CCCc1nc(-c2ccccc2Cl)no1 |  | 0.631 µM [falling, partial curve]
3 | O=C(Nc1ccccc1)c1cccc(C(F)(F)F)c1 | 7.08 µM [rising, full curve] | 7.08 µM [rising, partial curve, poor fit]
4 | OCCC1CN(Cc2cnn(-c3ccc(F)cc3)c2)CCN1Cc1ccsc1 (configuration not stated) | 0.00316 µM [falling, full curve, poor fit] | 
5 | CC(O)CNC(=O)C(=O)Nc1c2c(nn1-c1ccc(Cl)cc1)CSC2 (configuration not stated) |  | 0.00447 µM [falling, full curve, poor fit]
6 | CN[C@@H]1[C@H](O[C@H]2[C@@H](O[C@@H]3[C@@H](O)[C@@H](O)[C@@H](N=C(N)N)[C@@H](O)[C@@H]3N=C(N)N)O[C@@H](C)[C@]2(O)CO)O[C@H](CO)[C@@H](O)[C@@H]1O | 0.398 µM [falling, full curve] | 0.316 µM [falling, full curve]
7 | COc1cccc(Nc2ncc3nc(-c4cn(C)c5ccccc45)c(=O)n(C[C@H]4CCCO4)c3n2)c1 |  | 1.78 µM [falling, partial curve]
8 | S=C(Nc1ccccc1)N1CCn2c1nc1ccccc12 |  | 35.5 µM [rising, single point]
9 | Brc1ccc(OCc2nnnn2-c2ccccc2)cc1 | 3.55 µM [rising, single point] | 
10 | O=C(CN(CCO)c1ccccc1)NC12CC3CC(CC(C3)C1)C2 |  | 8.91 µM [rising, partial curve]
11 | O=C(NCCOc1ccccc1Cl)C(=O)NCCOc1ccccc1Cl |  | 0.631 µM [rising, partial curve, poor fit]
12 | Cc1cc(C)n(CC(C)NCc2cn[nH]c2-c2cccc3ccccc23)n1 (configuration not stated) | 11.2 µM [falling, partial curve, poor fit] | 22.4 µM [falling, partial curve, poor fit]
13 | COc1ccc(SCC(=O)c2cc(C)c(OC(=S)N(C)C)c(C)c2)cc1 | 35.5 µM [rising, single point] | 
14 | Cc1ccc(C(C)C)c(OCC(=O)NCC2(N3CCOCC3)CCCCC2)c1 | 14.1 µM [falling, partial curve, poor fit] | 20 µM [falling, partial curve, poor fit]
15 | CC1CN(C(=O)c2cccc(COc3ccc(Br)cc3)c2)CC(C)O1 (configuration not stated) | 35.5 µM [rising, single point] | 28.2 µM [rising, partial curve]
16 | CC(C)(C)n1ncc2c(=O)n(CC(=O)Nc3ccc(Cl)cc3)cnc21 |  | 2.82 µM [rising, single point]
17 | O=C(NCc1ccc2c(c1)OCO2)c1ccc(CSCc2ccccc2Cl)o1 | 10 µM [rising, partial curve, poor fit] | 
18 | Cn1ccc2cc(S(=O)(=O)N3CCCC(C(=O)NCc4ccc(F)cc4)C3)ccc21 (configuration not stated) | 35.5 µM [falling, single point] | 11.2 µM [falling, partial curve, poor fit]

Shown in CSV form: 10 of the compounds above
Row,Compound,AC50 [1],AC50 [2]
6,CN[C@@H]1[C@H](O[C@H]2[C@@H](O[C@@H]3[C@@H](O)[C@@H](O)[C@@H](N=C(N)N)[C@@H](O)[C@@H]3N=C(N)N)O[C@@H](C)[C@]2(O)CO)O[C@H](CO)[C@@H](O)[C@@H]1O,"0.398 µM [falling, full curve]","0.316 µM [falling, full curve]"
7,COc1cccc(Nc2ncc3nc(-c4cn(C)c5ccccc45)c(=O)n(C[C@H]4CCCO4)c3n2)c1,,"1.78 µM [falling, partial curve]"
8,S=C(Nc1ccccc1)N1CCn2c1nc1ccccc12,,"35.5 µM [rising, single point]"
9,Brc1ccc(OCc2nnnn2-c2ccccc2)cc1,"3.55 µM [rising, single point]",
10,O=C(CN(CCO)c1ccccc1)NC12CC3CC(CC(C3)C1)C2,,"8.91 µM [rising, partial curve]"
11,O=C(NCCOc1ccccc1Cl)C(=O)NCCOc1ccccc1Cl,,"0.631 µM [rising, partial curve, poor fit]"
12,Cc1cc(C)n(CC(C)NCc2cn[nH]c2-c2cccc3ccccc23)n1 (configuration not stated),"11.2 µM [falling, partial curve, poor fit]","22.4 µM [falling, partial curve, poor fit]"
13,COc1ccc(SCC(=O)c2cc(C)c(OC(=S)N(C)C)c(C)c2)cc1,"35.5 µM [rising, single point]",
14,Cc1ccc(C(C)C)c(OCC(=O)NCC2(N3CCOCC3)CCCCC2)c1,"14.1 µM [falling, partial curve, poor fit]","20 µM [falling, partial curve, poor fit]"
15,CC1CN(C(=O)c2cccc(COc3ccc(Br)cc3)c2)CC(C)O1 (configuration not stated),"35.5 µM [rising, single point]","28.2 µM [rising, partial curve]"

(continued)

Row | Compound | AC50 [1] | AC50 [2]
19 | Fc1cccc(Cl)c1/C=N/Nc1c(Cl)cncc1Cl | 12.6 µM [rising, single point] | 
20 | COc1ccccc1C(=O)NNC(=O)C(=O)NCc1ccccc1 | 0.355 µM [falling, full curve] | 
21 | Oc1ccc(-c2onc(C(F)(F)F)c2-c2cscn2)c(O)c1 | 11.2 µM [rising, partial curve, poor fit] | 
22 | COC(=O)c1ccc(C2C=C(c3ccc(Cl)cc3)Nc3nc4ccccc4n32)cc1 (configuration not stated) | 6.31 µM [rising, partial curve, poor fit] | 1.78 µM [rising, partial curve]
23 | Cc1ccc(-c2noc(C3CCCN(C(=O)c4c(F)cccc4F)C3)n2)cc1 (configuration not stated) | 20 µM [rising, single point] | 22.4 µM [rising, single point]
24 | Cc1cc2nn(-c3ccccc3)nc2cc1NC(=O)c1cccs1 | 17.8 µM [rising, partial curve] | 11.2 µM [rising, partial curve, poor fit]
25 | CCOC(=O)Cn1cc(C(=O)OC)c2ccccc21 | 0.0708 µM [falling, full curve, poor fit] | 
26 | COc1ccc(NC(=O)CCSc2ccc(C)cc2)cc1S(=O)(=O)Nc1ccccc1Cl | 17.8 µM [rising, partial curve, poor fit] | 
27 | Cc1ccc(C(=O)NC(=S)Nc2ccccc2C(F)(F)F)cc1 | 15.8 µM [rising, partial curve] | 11.2 µM [rising, partial curve]
28 | Cc1c(C(=O)OC2CCCC2C)[nH]c2c1C(=O)CCC2 (configuration not stated) | 14.1 µM [rising, single point] | 
29 | CCOC(=O)N1CCC(N2Cc3cccc(C(=O)NCc4ccc(OC)cc4)c3C2=O)CC1 | 35.5 µM [rising, single point] | 0.0562 µM [rising, full curve, poor fit]
30 | C=CCn1c(CNc2ccc(C)cc2)nnc1SCC(=O)N/N=C/c1ccc(O)cc1O | 12.6 µM [rising, single point] | 
31 | O=C(Nc1ccccc1F)c1c[nH]c(=O)[nH]c1=O |  | 11.2 µM [rising, partial curve]
32 | Cc1nc2c(C(=O)NCc3cccs3)cnn2c(C)c1Cc1ccccc1 | 0.0251 µM [rising, full curve, poor fit] | 
33 | COc1ccc(Nc2nc(-c3ccccc3)nc3ccccc23)c(OC)c1 | 10 µM [rising, partial curve] | 
34 | O=C(Nc1ccc(Cn2cccn2)cc1)c1ccc(COc2ccccc2Br)cc1 | 5.62 µM [rising, full curve] | 3.16 µM [rising, full curve]
35 | COc1ccc(N(CC(=O)Nc2ccc(C)cc2C)S(=O)(=O)c2ccccc2[N+](=O)[O-])c(OC)c1 | 0.0282 µM [falling, full curve, poor fit] | 
